Measured values from paper doi:10.1101/521369.

Amino acid sequences for entries named in this document (tags omitted).
UniProt Q9QZ81: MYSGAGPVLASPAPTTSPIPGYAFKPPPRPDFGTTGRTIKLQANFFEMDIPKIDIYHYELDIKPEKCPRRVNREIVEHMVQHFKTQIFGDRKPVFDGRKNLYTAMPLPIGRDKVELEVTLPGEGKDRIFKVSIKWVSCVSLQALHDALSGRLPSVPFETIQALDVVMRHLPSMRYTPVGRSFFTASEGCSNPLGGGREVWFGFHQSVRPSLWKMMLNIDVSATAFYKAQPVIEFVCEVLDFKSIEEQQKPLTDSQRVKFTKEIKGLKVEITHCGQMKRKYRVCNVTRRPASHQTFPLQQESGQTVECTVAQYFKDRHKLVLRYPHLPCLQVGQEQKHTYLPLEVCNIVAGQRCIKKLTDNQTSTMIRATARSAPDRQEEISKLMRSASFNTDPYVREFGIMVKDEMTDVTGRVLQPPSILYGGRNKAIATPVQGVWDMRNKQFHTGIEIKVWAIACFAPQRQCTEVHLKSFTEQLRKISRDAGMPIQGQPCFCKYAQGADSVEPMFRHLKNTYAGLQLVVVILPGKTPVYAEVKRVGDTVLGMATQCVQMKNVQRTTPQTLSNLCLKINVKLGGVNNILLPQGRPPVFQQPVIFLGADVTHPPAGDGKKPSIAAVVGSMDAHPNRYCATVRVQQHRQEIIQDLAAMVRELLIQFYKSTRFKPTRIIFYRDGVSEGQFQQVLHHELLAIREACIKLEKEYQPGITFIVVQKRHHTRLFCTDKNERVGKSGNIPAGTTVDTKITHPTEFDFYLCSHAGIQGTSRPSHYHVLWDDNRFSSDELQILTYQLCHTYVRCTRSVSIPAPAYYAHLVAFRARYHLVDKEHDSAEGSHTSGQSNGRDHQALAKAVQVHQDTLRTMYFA
UniProt Q5XI81: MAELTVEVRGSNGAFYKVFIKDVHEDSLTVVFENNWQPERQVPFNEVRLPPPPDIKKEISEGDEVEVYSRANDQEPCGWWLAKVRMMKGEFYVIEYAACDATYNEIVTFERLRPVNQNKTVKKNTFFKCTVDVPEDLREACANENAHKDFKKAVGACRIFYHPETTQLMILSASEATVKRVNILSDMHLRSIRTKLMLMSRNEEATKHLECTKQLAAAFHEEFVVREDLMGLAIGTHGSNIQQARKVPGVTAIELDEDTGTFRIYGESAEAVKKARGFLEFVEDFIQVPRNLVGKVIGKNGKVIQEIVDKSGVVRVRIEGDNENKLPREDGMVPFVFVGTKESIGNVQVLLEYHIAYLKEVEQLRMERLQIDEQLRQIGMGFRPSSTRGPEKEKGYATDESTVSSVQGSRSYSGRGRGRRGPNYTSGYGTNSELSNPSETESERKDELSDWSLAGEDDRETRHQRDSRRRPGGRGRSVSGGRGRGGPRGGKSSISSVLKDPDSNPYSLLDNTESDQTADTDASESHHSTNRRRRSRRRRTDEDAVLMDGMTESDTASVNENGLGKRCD
UniProt B5DFC8: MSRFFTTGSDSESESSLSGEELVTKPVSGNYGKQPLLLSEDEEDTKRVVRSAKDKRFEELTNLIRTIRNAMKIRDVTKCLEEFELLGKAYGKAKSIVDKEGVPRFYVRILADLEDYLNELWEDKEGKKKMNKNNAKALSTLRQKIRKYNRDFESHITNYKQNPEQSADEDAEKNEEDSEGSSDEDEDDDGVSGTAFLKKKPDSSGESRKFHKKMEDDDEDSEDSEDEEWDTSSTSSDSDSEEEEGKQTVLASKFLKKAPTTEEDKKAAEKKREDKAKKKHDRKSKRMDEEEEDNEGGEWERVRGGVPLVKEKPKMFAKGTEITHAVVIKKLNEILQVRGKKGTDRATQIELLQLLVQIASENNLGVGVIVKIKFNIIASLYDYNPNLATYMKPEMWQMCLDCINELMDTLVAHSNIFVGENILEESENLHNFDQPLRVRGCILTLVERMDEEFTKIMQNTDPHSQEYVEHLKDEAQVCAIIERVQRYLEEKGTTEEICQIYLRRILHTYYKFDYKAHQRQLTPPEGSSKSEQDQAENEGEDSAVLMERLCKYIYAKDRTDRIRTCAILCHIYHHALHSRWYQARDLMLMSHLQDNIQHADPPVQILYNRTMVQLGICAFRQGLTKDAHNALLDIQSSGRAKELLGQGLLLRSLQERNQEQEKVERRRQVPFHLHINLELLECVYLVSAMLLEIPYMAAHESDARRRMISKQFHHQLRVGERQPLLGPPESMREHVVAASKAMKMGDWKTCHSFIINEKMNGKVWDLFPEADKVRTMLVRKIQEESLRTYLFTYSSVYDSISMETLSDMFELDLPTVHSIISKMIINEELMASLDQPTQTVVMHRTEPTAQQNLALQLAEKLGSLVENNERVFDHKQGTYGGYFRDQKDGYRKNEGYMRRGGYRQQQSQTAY
UniProt Q3T1J1: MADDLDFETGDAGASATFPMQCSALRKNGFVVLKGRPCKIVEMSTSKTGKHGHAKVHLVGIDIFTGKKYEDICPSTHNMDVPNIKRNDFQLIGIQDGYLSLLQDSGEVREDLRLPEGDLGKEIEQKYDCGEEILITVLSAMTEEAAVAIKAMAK
UniProt Q1JU68: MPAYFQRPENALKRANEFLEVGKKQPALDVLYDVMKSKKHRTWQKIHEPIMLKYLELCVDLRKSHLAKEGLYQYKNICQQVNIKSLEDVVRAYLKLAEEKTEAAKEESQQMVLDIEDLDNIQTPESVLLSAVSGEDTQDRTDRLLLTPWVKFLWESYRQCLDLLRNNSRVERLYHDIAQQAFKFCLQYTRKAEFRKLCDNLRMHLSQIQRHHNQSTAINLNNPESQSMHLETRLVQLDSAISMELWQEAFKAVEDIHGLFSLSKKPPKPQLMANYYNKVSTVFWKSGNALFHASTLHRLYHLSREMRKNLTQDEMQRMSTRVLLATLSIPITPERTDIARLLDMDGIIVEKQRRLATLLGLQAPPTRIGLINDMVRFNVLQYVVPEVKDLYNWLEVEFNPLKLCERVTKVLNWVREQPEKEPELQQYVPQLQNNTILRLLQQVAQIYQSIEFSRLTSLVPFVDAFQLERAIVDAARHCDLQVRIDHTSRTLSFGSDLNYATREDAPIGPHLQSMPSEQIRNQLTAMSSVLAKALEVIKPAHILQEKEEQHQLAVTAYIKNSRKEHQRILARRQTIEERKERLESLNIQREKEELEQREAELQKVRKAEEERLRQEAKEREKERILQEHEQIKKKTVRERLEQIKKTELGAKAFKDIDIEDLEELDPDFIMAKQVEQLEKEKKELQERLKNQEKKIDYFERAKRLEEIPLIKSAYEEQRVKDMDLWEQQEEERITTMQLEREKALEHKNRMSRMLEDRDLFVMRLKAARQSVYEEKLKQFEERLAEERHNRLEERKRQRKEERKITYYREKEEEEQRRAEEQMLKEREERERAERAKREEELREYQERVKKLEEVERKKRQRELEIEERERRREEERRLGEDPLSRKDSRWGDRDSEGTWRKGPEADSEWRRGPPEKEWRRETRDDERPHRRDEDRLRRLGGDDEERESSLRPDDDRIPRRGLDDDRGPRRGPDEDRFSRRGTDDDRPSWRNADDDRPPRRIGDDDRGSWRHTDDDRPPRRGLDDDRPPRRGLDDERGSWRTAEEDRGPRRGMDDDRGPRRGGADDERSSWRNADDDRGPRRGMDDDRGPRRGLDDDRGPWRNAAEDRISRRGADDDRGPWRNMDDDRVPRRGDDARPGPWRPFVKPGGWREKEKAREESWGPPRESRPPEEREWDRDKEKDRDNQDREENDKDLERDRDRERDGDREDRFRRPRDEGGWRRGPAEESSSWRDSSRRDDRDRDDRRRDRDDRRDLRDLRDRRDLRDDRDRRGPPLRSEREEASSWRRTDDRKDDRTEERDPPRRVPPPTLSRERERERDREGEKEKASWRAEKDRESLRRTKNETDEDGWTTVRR
UniProt Q4G061: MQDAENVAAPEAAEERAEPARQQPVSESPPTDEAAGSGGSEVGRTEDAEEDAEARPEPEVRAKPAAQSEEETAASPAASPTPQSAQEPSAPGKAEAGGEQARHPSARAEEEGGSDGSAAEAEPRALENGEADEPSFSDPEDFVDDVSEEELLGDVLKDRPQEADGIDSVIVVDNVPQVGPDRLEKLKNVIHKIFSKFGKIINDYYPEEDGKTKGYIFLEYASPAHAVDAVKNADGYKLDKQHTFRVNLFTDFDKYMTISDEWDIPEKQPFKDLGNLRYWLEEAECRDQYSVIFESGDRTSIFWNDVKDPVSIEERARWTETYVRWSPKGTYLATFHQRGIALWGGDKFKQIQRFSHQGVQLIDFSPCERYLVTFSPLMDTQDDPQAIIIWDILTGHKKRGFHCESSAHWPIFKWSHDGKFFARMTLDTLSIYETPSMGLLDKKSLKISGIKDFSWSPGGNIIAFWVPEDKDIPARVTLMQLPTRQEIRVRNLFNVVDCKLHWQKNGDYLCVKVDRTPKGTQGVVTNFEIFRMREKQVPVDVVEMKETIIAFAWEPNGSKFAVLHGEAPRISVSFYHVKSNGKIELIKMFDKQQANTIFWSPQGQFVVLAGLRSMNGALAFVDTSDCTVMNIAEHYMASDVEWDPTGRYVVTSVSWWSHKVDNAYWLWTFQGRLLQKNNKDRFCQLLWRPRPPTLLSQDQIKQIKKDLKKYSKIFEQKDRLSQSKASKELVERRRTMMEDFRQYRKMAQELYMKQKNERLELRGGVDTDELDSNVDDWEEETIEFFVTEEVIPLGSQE

Target: argonaute 2 (Ago2), endogenous (rat (endogenous in PC12 and A10)) (UniProt Q9QZ81)
Experiment: affinity purification with mass spectrometry

Row | binding | Substance
1 | binds | FXR1, endogenous (from UniProt Q5XI81 1-568)

Target: T1, phospholipase Cβ1 (PLCβ1), endogenous (rat (endogenous in PC12 and A10)) (UniProt P10687)
T1 sequence: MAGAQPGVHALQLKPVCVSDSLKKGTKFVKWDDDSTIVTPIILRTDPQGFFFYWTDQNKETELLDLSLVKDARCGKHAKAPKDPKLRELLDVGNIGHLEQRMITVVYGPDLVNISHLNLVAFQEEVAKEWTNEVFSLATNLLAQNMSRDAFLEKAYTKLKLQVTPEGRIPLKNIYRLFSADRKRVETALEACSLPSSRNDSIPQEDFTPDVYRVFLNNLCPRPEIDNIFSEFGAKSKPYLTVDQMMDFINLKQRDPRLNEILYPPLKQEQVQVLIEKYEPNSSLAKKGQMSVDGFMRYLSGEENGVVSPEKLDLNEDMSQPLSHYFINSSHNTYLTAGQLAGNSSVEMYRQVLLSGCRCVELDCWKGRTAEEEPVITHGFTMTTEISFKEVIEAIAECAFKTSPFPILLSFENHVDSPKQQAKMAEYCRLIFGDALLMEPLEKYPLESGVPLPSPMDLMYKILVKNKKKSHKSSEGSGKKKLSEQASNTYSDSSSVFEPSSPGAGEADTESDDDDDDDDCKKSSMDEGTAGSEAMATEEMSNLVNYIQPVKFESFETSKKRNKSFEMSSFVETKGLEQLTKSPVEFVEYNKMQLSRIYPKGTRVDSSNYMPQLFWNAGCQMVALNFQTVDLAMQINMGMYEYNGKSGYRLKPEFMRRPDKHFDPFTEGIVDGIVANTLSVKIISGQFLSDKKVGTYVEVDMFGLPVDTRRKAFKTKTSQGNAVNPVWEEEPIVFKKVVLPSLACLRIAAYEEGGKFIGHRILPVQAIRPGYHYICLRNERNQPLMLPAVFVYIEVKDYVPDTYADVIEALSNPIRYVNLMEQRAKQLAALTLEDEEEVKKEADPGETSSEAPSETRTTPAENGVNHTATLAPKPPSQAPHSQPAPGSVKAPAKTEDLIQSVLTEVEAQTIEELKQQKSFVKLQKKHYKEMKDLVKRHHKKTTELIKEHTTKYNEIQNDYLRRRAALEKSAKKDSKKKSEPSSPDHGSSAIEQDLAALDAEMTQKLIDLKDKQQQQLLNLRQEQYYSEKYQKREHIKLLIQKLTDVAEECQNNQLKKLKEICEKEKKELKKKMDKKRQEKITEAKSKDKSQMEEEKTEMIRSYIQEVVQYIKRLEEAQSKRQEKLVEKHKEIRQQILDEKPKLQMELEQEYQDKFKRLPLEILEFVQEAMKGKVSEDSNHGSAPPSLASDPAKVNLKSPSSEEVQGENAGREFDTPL
Experiment: affinity purification with mass spectrometry

Row | binding | Substance
2 | binds | eIF3C, endogenous (from UniProt B5DFC8 1-911)
3 | binds | eukaryotic initiation factor 5A (eIF5A), endogenous (from UniProt Q3T1J1 1-154)

Further lines, the substance ahead of its results:

Row | Substance | binding
4 | FXR1, endogenous (from UniProt Q5XI81 1-568) | binds
5 | eIF3A, endogenous (from UniProt Q1JU68 1-1354) | binds
6 | eIF3B, endogenous (from UniProt Q4G061 1-797) | binds

Results are given in words; binding and its absence hold for the method and conditions named. Binding seen in cells or lysates may run through a third protein. A yes stands for co-enrichment or nearness to the bait. Other partners may have been found.
